Here are results for three molecules from PMC10970924 (Life, 2024).

For this data set, the system named is chicken erythrocyte genomic DNA. In words: Spectrophotometry of complexation with genomic DNA.

In the case of `COc1cccc2c1C(=O)c1c(O)c3c(c(O)c1C2=O)CC(O)(C(=O)CO)CC3OC1CC(NC(=O)/C=C/c2cnc(C)c3c2COC(C)(C)O3)C(O)C(C)O1` (stereo not drawn) [DOX-2, (E)-N-(3-hydroxy-2-methyl-6-((3,5,12-trihydroxy-3-(2-hydroxyacetyl)-10-methoxy-6,11-dioxo-1,2,3,4,6,11-hexahydrotetracen-1-yl)oxy)tetrahydro-2H-pyran-4-yl)-3-(2,2,8-trimethyl-4H-[1,3]dioxino[4,5-c]pyridin-5-yl)acrylamide], the “Absorption Maximum without DNA” value was found to be 490 nm. The “Absorption Maximum” value (DNA concentration 15 µg/mL) is 490 nm. Where the note is “DNA concentration 20 µg/mL”, the “Absorption Maximum” value amounted to 490 nm. Under “DNA concentration 30 µg/mL”, the “Absorption Maximum” value was 490 nm. Besides, the “Absorption Maximum” value (DNA concentration 60 µg/mL) came out at 491 nm.

With `COc1cccc2c1C(=O)c1c(O)c3c(c(O)c1C2=O)C[C@@](O)(C(=O)CO)C[C@@H]3O[C@H]1C[C@H](N)[C@H](O)[C@H](C)O1` [DOX, Doxorubicin, reference compound], the “Absorption Maximum without DNA” value is 481 nm. Further, the “Absorption Maximum” value (DNA concentration 15 µg/mL) was determined as 495 nm. For the same molecule, the “Absorption Maximum” value (DNA concentration 20 µg/mL) was determined as 495 nm. For the same molecule, the “Absorption Maximum” value (DNA concentration 30 µg/mL) worked out at 501 nm. Besides, the “Absorption Maximum” value (DNA concentration 60 µg/mL) was found to be 506 nm.

As to `COc1cccc2c1C(=O)c1c(O)c3c(c(O)c1C2=O)CC(O)(C(=O)CO)CC3OC1CC(NC(=O)c2cnc(C)c3c2COC(C)(C)O3)C(O)C(C)O1` (stereo not drawn) [DOX-1, N-(3-hydroxy-2-methyl-6-((3,5,12-trihydroxy-3-(2-hydroxyacetyl)-10-methoxy-6,11-dioxo-1,2,3,4,6,11-hexahydrotetracen-1-yl)oxy)tetrahydro-2H-pyran-4-yl)-2,2,8-trimethyl-4H-[1,3]dioxino[4,5-c]pyridine-5-carboxamide], the “Absorption Maximum without DNA” value was 492 nm. In addition, the “Absorption Maximum” value (DNA concentration 15 µg/mL) amounted to 490 nm. In addition, under “DNA concentration 20 µg/mL”, the “Absorption Maximum” value was found to be 491 nm. For the same molecule, the “Absorption Maximum” value (DNA concentration 30 µg/mL) is on record as 488 nm. In addition, where the note is “DNA concentration 60 µg/mL”, the “Absorption Maximum” value was found to be 490 nm.
